# Results of single-concentration screens

Sequences of proteins named here, by UniProt entry; tags and fusion partners are left off. Residues count along the entry.
UniProt A4I591, 1-473: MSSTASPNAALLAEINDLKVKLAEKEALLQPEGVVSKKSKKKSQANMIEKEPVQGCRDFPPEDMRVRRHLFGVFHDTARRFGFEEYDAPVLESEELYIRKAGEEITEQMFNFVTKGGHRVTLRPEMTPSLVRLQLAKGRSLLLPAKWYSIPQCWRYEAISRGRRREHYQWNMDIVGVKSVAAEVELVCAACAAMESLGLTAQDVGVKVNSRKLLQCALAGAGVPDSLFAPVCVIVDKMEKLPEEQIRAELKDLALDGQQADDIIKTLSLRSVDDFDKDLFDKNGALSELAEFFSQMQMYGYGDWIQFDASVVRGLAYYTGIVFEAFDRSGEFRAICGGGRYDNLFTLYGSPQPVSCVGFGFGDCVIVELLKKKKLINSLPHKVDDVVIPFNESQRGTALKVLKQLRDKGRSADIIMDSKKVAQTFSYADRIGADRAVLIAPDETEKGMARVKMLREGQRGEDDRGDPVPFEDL
UniProt Q4DA54, 1-478: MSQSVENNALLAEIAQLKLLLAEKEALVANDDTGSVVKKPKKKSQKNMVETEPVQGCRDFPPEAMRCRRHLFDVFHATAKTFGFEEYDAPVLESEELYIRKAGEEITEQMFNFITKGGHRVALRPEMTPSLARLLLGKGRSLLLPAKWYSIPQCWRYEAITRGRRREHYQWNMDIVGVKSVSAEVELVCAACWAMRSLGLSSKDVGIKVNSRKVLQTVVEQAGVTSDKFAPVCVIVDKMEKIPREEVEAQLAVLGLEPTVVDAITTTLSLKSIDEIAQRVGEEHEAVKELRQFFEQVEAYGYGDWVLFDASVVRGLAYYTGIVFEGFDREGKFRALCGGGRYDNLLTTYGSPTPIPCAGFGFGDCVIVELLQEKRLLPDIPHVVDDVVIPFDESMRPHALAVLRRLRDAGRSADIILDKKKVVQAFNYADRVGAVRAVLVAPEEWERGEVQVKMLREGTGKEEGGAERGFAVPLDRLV

Source: ChEMBL document CHEMBL3988442, “University of Dundee, Small-Polar-MMV Screening Library” (2021).

Values are the deposited “Percent Effect”, in %. How 0% and 100% were set is not recorded. Most values in the screen are low, and negative values occur. This is an unselected part of the compounds tested.

LiHisRS: 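Histidine-tRNA ligase, Leishmania infantum (UniProt A4I591). Enzyme assay of histidyl-tRNA synthetase; the read-out is not stated. Tested at 30 µM. The record gives no direction; compounds that gave an IC50 in retests scored well above the rest, so higher reads as stronger inhibition. The assay is labelled LdHisRS but filed under L. infantum. About 69,000 compounds were tested under these conditions; 0.6% (about 410) showed 50% or more at least once.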
TcHisRS: 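Enzyme assay of histidyl-tRNA synthetase; the read-out is not stated. Target: Histidine-tRNA ligase, Trypanosoma cruzi CL Brener (UniProt Q4DA54). Concentration: 30 µM. Direction is inferred from retests: higher values go with stronger inhibition. Of about 69,000 compounds tested this way, about 31 (0.045%) reached 50% or more in at least one test.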

O=C(c1cc(-c2cccs2)cs1)N1CCSCC1 read LiHisRS: 18.52%; TcHisRS: 1.339%.
COCc1nc(CN2CCN(c3ccc(OC)cc3)C(=O)C2C)no1 (stereo not shown) read LiHisRS: 13.25%; TcHisRS: 6.468%.
Cc1nc(CN(C)C2CCN(CCc3cnn(C)c3)C2)no1 (stereo not shown) read LiHisRS: 8.621%; TcHisRS: 3.39%.
c1ccc2c(c1)CCN2c1nc(N2CCOCC2)c2nn[nH]c2n1 read LiHisRS: 15.05%; TcHisRS: 6.736%.
COCCN1CCCc2sc(C(=O)NCC3CCCO3)nc21 (stereo not shown) read LiHisRS: 52.78%; TcHisRS: 16.19%.
CS(=O)(=O)NCCN(CCCO)C1CCc2ccccc21 (stereo not shown) read LiHisRS: 12.35%; TcHisRS: 5.521%.
COc1cccc(CN2CCCC(Cn3nc(C)nc3C)C2)c1 (stereo not shown) read LiHisRS: 17.86%; TcHisRS: 11.63%.
Cc1ccc(-c2cc(CNc3ncnc4c3CCNCC4)no2)cc1 read LiHisRS: 14.29%; TcHisRS: 7.921%.
Cc1nnc(N2CCCC3(CN(Cc4nccn4C)CCO3)C2)o1 (stereo not shown) read LiHisRS: 16.13%; TcHisRS: 4.386%.
CC(=O)Nc1nc(C(=O)NC(C)c2ccc(F)cc2)cs1 (stereo not shown) read LiHisRS: -53.33%; TcHisRS: 0.3774%.
COCCCN1CCC(NC2CSCCc3ccccc32)CC1 (stereo not shown) read LiHisRS: 13.33%; TcHisRS: 5.195%.
Cc1nc(C2CCCN(C(=O)c3ccnc(N(C)C)c3)C2)no1 (stereo not shown) read LiHisRS: 6.25%; TcHisRS: 5.202%.
O=C1NCCCCC1NC(=O)N1CCCc2ccccc21 (stereo not shown) read LiHisRS: 13.95%; TcHisRS: 16.67%.
COc1ccc(CNc2nc(C3CC3)nc3c(C)nn(C)c23)cc1 read LiHisRS: 19.47%; TcHisRS: 5.263%.
Cc1cc(C2CCCN2Cc2nc3c(cnn3C)c(=O)[nH]2)on1 (stereo not shown) read LiHisRS: 18.18%; TcHisRS: 3.509%.
Cc1ccc(OC2(C(=O)O)CCN(C(=O)CCc3ccco3)CC2)cn1 read LiHisRS: 3.279%; TcHisRS: -3.863%.
Cc1csc(NC(=O)C2(C)CCCO2)n1 (stereo not shown) read LiHisRS: 1.587%; TcHisRS: -4.04%.
Cc1ccc(C(=O)O)c(N2Cc3cnc(C(C)(C)C)nc3C2)n1 read LiHisRS: 14.29%; TcHisRS: -12.37%.
O=C(NC1CC(=O)N(C2Cc3ccccc3C2)C1)c1csnn1 (stereo not shown) read LiHisRS: 8.333%; TcHisRS: 9.091%.
CNc1nc(CNC(=O)Nc2cccc(Cl)c2Cl)cs1 read LiHisRS: 12.5%; TcHisRS: 7.101%.
COCC1CC2(CCNCC2)CN1Cc1csc(C)n1 (stereo not shown) read LiHisRS: 21.37%; TcHisRS: 8.021%.
COc1cccc(C2CCCN2CCCNS(C)(=O)=O)c1 (stereo not shown) read LiHisRS: 18.64%; TcHisRS: 8%.
O=C1CCCCN1CCc1nc(C2(c3ccc(F)cc3)CCOC2)no1 (stereo not shown) read LiHisRS: 10.62%; TcHisRS: 4.464%.